Data from PubChem BioAssay AID493014 (National Center for Advancing Translational Sciences (NCATS), 2011).
Some of the results follow. The main result of the screen is listed elsewhere. These columns were measured beside it and carry no call. Most of these compounds were active or inconclusive in the main read-out, so they are no random draw. Potencies come from curve fits of mixed quality, noted in brackets.

Test: qHTS Assay to Find Inhibitors of Chronic Active B-Cell Receptor Signaling
Settings: ABC-DLBCL IkBa-CBG/CBR reporter, luminescence ratio (green luciferase fused to IkBa over red control in TMD8 lymphoma cells), 4 h
Summary of the method: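 Concentration-response series (up to 46 uM) were applied to TMD8 dual-reporter cells for 4 h at 37C with doxycycline. Green/red ratio, after filter-overlap correction, defined %Activity; red signal alone was normalised to basal cells and zero luminescence.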

[1] = measured here: CBR red luminescence, cell number
[2] = measured here: IkBa-CBG green luminescence

| Structure (SMILES) | AC50 [1] | AC50 [2] |
| --- | --- | --- |
| CCOc1cccc2sc(NC(=O)CC)nc12 | 5.8 µM [falling, full curve] |  |
| O=C(/C=C/c1ccc2c(c1)OCO2)c1ccccn1 | 3.16 µM [rising, full curve] |  |
| CSc1nnc2c(n1)OC(c1cn(C)c3ccccc13)N(C(C)=O)c1ccccc1-2 (configuration not stated) | 1.3 µM [falling, full curve, poor fit] |  |
| Cc1ccc2c(c1)C1CN(C)CCC1N2C(=O)COc1ccc(N(C)S(=O)(=O)c2cccs2)cc1 (configuration not stated) | 35.5 µM [falling, single point] |  |
| COc1cc(OC)cc(C(=O)Nc2ccc(S(=O)(=O)Nc3nc(C)cc(C)n3)cc2)c1 |  | 15.8 µM [falling, single point] |
| CC(=O)Cc1nsc(NC(=O)c2cccc(F)c2)n1 | 3.16 µM [falling, single point] |  |
| Cn1c(=O)n(/N=C/c2ccccc2)c2ccccc21 | 6.51 µM [rising, full curve, poor fit] |  |
| O=C(NCC(=O)N(Cc1ccco1)C(C(=O)NC1CCCC1)c1ccncc1)c1cccs1 (configuration not stated) | 0.00461 µM [rising, full curve, poor fit] |  |
| Cc1ccc(NC(=S)N(CCN2CCOCC2)Cc2ccccc2F)cc1 | 3.55 µM [rising, full curve, poor fit] |  |
| CC#CCCCC(=O)Nc1cc(OC)nc(OC)n1 | 39.8 µM [falling, partial curve, poor fit] |  |
| CCOC(=O)c1c(NC(=O)COC(=O)Cn2cnc3ccccc32)sc2c1CCC(C)C2 (configuration not stated) | 3.26 µM [rising, full curve, poor fit] |  |
| C=CCn1c(CNc2ccccc2)nnc1SCC(=O)N/N=C/c1ccccc1O | 35.5 µM [rising, single point] |  |
| COCCN=C1N[C@@H](c2ccc(Br)cc2)C(C(=O)OC)=C(C)N1Cc1ccccc1 | 12.6 µM [falling, partial curve] |  |
| c1ccc(SCc2nc3ccccc3s2)nc1 | 35.5 µM [falling, single point] |  |
| O=C(C[n+]1cc(-c2ccc(F)cc2)n2c1CCC2)N1c2ccccc2Sc2ccccc21 | 23.1 µM [falling, partial curve] |  |
| COc1cc(C(C[N+](=O)[O-])c2c(C)cc3ccccn23)ccc1O (configuration not stated) | 4.47 µM [falling, full curve] |  |
| Cc1nc2c(-c3ccccc3)c[nH]n2c(=O)c1Cc1ccccc1 | 22.4 µM [rising, single point] | 35.5 µM [falling, partial curve, poor fit] |
| Cc1ccc(C(=O)Nc2ccccc2SCC2CSc3nc4ccccc4c(=O)n32)cc1 (configuration not stated) | 12.6 µM [falling, single point] |  |
| Cc1ccc(N2CCN(C(=O)c3cccc([N+](=O)[O-])c3)CC2)cc1Cl | 3.98 µM [falling, partial curve, poor fit] |  |
| Cc1ccc(CS(=O)(=O)Cc2ccc(C(=O)NCc3ccccn3)o2)cc1 | 4.11 µM [rising, single point] |  |

Three records drawn at random from those above:

| Structure (SMILES) | AC50 [1] | AC50 [2] |
| --- | --- | --- |
| COc1cc(OC)cc(C(=O)Nc2ccc(S(=O)(=O)Nc3nc(C)cc(C)n3)cc2)c1 |  | 15.8 µM [falling, single point] |
| Cn1c(=O)n(/N=C/c2ccccc2)c2ccccc21 | 6.51 µM [rising, full curve, poor fit] |  |
| Cc1ccc(NC(=S)N(CCN2CCOCC2)Cc2ccccc2F)cc1 | 3.55 µM [rising, full curve, poor fit] |  |

(more compounds)

| Structure (SMILES) | AC50 [1] | AC50 [2] |
| --- | --- | --- |
| Cc1cc(C(c2ccc(O)cc2)c2cc(C)c(O)cc2C)c(C)cc1O |  | 12.6 µM [falling, partial curve, poor fit] |
| COc1ccc(NC(=O)c2cc(Br)ccc2Cl)c([N+](=O)[O-])c1 | 7.94 µM [rising, partial curve] |  |
| CN1CCN(C(=S)C(=O)Nc2ccccc2)CC1 | 15.8 µM [falling, single point] |  |
| O=C(Cc1c(F)cccc1Cl)NCCN1CCOCC1 | 35.5 µM [rising, single point] |  |
| Cc1cc(C)c(S(=O)(=O)Nc2ccc(N(C)C)cc2)c(C)c1-n1cnnn1 | 35.5 µM [falling, single point] |  |
| CC1C(=NO)C(C)C(c2ccc(N(C)C)cc2)NC1c1ccc(N(C)C)cc1 (configuration not stated) | 5.62 µM [rising, partial curve, poor fit] |  |
| COc1cccc(CC(=O)Nc2ccc3c(c2)OC2(CCCC2)O3)c1 | 6.51 µM [rising, single point] |  |
| O=C1c2cccc3c([N+](=O)[O-])ccc(c23)C(=O)N1c1nccs1 | 16.4 µM [falling, partial curve, poor fit] |  |
| Cc1ccccc1OCCNc1ccc(C(F)(F)F)cc1[N+](=O)[O-] | 2.51 µM [rising, partial curve, poor fit] |  |
| COc1cc2c(cc1OC)[C@@H](NC(=O)C(C)C)[C@H](O)C2 | 29.1 µM [rising, single point] |  |
| COc1ccccc1CNC(=O)COC(=O)CSc1ccc(C)c(C)c1 | 25.9 µM [rising, partial curve, poor fit] |  |
| Cc1ccc2c(c1)c1ncnc(N3CCc4ccccc4C3)c1n2C | 2.24 µM [rising, partial curve, poor fit] |  |
| OCC[C@@H]1C[C@@H](O)[C@H](O)[C@@]2(OCc3ccccc32)O1 | 8.91 µM [falling, partial curve, poor fit] |  |
| COc1ccc(-c2nn(-c3ccccc3)cc2/C=N/NC(N)=S)cc1OC | 16.4 µM [falling, single point] | 18.4 µM [falling, partial curve] |
| Fc1cccc(/C=N/Nc2ccccn2)c1 | 2.82 µM [rising, partial curve] |  |
| CCOC(=O)C1CCCN(c2c(C(=O)c3ccccc3)cnc3ccccc23)C1 (configuration not stated) | 14.1 µM [falling, single point] |  |
| O=S1OC(c2ccccc2)c2cc(Cl)ccc21 (configuration not stated) | 23.1 µM [rising, partial curve, poor fit] |  |
| Cc1cc(C)c2cc(C(c3nnnn3C3CCCC3)N3CCOCC3)c(=O)[nH]c2c1 (configuration not stated) | 3.55 µM [rising, single point] |  |
| CCNc1ccccc(C(=O)/C=C/c2ccc3c(c2)OCO3)c1=O | 6.51 µM [falling, single point] |  |
| O=C(Cc1ccc(Cl)cc1Cl)OCC(=O)N1CCN(C(=O)c2ccco2)CC1 | 0.0891 µM [rising, full curve, poor fit] |  |
